Measured values as given in patent US9987216B2, “Plant fat composition for cosmetic preparation” (priority 2016, dated 2018).
Some results were stated once for a whole list of compounds, not compound by compound.

Test system: skin on the inner side of the upper arm
Assay: Transepidermal water loss (TEWL), AquaFlux
Assay type: in vivo
Conditions: 100 μl applied, absorbed for 5 minutes; FIG. 1

Compound: CC(C)CCCC(C)CCCC(C)CCCCC(C)CCCC(C)CCCC(C)C (stereo not shown) [plant-derived squalane, squalane]
- transepidermal water loss decrease from the initial value: ≥ 20%
